PubChem BioAssay AID1259308 – NCATS, 2017
Shown is one part, drawn at random, of about 59,000 deposited reagents. About 1,510 of them (2.6%) were called active. 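Calls use total luciferase alone and ignore viability, so some active siRNAs may act by altering cell number.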 A number with no mark means an inactive call. The numbers tell different reagents against one gene apart. Not all columns of the deposit are shown. No sequences are given here.

- Screen: 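Genes whose loss raises luciferase production in HEK293 cells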 (primary screen)
- Cell system: human HEK293 embryonic kidney cells stably expressing firefly luciferase (HEK-CMV-Luc2-Hygro)
- Reagents: single siRNA against human genes, 0.8 pmol siRNA per well
- Duration: 72 h
- Measured: 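Reporter luminescence and viable-cell signal on separate replicate plates, given as percent of non-targeting control and median/MAD z-scores, plus per-cell luciferase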
- Reading the numbers: total luciferase, z-score and total luciferase, % of control: higher = more reporter protein produced
- Active means: 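Active when the median/MAD z-score for overall luciferase is greater than 3; a gene was taken forward for validation with new siRNAs if at least two of its three siRNAs passed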
- Meaning of the calls: active = raised luciferase; inactive = no rise

Knock-down of RPL15 (GeneID 6138) #1 gave: total luciferase, z-score -0.0595; total luciferase, % of control 80.7.
Knock-down of RPL15 (GeneID 6138) #2 resulted in: total luciferase, z-score 0.499; total luciferase, % of control 91.8.
After knock-down of RPL15 (GeneID 6138) #3 the results were total luciferase, z-score 0.434; total luciferase, % of control 90.5.
Against ITGB3 (GeneID 3690) #1, the entry reads total luciferase, z-score 0.0568; total luciferase, % of control 83.
Depletion of ITGB3 (GeneID 3690) #2 gave: total luciferase, z-score -0.269; total luciferase, % of control 76.5.
With knock-down of ITGB3 (GeneID 3690) #3 the results were total luciferase, z-score 0.109; total luciferase, % of control 84.

An excerpt from above, limited to “total luciferase, z-score”.
RPL15 (GeneID 6138) #1	-0.0595
RPL15 (GeneID 6138) #2	0.499

The listing continues:
Against SLC20A1 (GeneID 6574) #1, the entry reads total luciferase, z-score -0.41; total luciferase, % of control 73.7.
After knock-down of SLC20A1 (GeneID 6574) #2, the record shows total luciferase, z-score -1.63; total luciferase, % of control 49.4.
For SLC20A1 (GeneID 6574) #3, the entry reads total luciferase, z-score 0.547; total luciferase, % of control 92.8.
For DPF2 (GeneID 5977) #1 the deposit lists total luciferase, z-score 1.07; total luciferase, % of control 103.
With knock-down of DPF2 (GeneID 5977) #2, the record shows total luciferase, z-score 2.5; total luciferase, % of control 132.
For DPF2 (GeneID 5977) #3 the deposit lists total luciferase, z-score -0.472; total luciferase, % of control 72.5.
